Earlier results as cited in paper PMC3933419, “Synthesis and Properties of a Selective Inhibitor of Homeodomain–Interacting Protein Kinase 2 (HIPK2)” (PLoS ONE, 2014).

System: panel of 71 protein kinases
Conditions: 1 µM concentration, ref [9]; cited from earlier work

Q: Which “average inhibition of the whole panel” value does the source give for `C[S+]([O-])c1ccc(-c2nc(-c3ccncc3)c(-c3ccc(F)cc3)[nH]2)cc1` (stereo not shown) [SB203580] here?
A: 17.7%
